{
  "sequences": {"note": "Sequences of proteins named here, by UniProt entry; tags and fusion partners are left off. A change or cut given only in a name is not applied to a line headed by its entry.", "UniProt P18054": "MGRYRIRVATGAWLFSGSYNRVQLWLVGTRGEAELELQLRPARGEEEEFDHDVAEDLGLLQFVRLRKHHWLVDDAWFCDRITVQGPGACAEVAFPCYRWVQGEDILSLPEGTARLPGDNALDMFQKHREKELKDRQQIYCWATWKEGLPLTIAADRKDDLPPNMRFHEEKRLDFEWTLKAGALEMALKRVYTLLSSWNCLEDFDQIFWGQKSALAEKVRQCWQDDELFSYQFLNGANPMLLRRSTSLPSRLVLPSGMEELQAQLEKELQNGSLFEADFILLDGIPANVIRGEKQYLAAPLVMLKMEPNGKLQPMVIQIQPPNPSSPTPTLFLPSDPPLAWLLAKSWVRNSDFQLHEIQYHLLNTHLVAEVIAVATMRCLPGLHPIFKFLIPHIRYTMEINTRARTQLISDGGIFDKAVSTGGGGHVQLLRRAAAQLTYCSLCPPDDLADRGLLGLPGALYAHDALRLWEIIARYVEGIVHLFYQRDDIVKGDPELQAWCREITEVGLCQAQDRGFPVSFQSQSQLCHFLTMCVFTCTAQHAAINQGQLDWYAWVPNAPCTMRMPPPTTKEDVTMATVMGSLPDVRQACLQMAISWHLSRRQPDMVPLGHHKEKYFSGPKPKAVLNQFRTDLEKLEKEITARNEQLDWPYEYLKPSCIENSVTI"},
  "source": "PubChem BioAssay AID1671190",
  "about": "(National Center for Advancing Translational Sciences (NCATS), 2021)",
  "note": "Hit rate of the full screen: of about 580,000 compounds, about 6,100 (1.1%) were called active. The shares of active, inactive and inconclusive entries below differ from those in the screen. Calls come from the whole dose curve; as a rule, active = well fitted inhibition curve with a large enough effect; inconclusive = small, poorly fitted or top-dose-only effect, or another doubt; inactive = no such curve, though single readings can be large or run the other way. A potency beside an inconclusive call is a rough fit, not a confirmed value. Potency is the fitted concentration of half-maximal effect.",
  "data": [
    {"target": "Polyunsaturated fatty acid lipoxygenase ALOX12 (Homo sapiens) (UniProt P18054)", "assay": "Primary qHTS assay for inhibitors of human arachidonate 12S-lipoxygenase (ALOX12): Round 2", "conditions": "purified 12hLO, xylenol orange hydroperoxide absorbance; series mostly up to 108 µM", "in_short": "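Hydroperoxide product was detected by ferrous iron/xylenol orange as the 573 to 405 nm absorbance ratio. Arachidonic acid at 40 uM (final) was turned over for 30 min at room temperature by 150 nM human 12hLO, pH 7.0 Hepes buffer, after 15 min compound preincubation.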", "values": [
      {"compound": "COc1ccc(/C=N/N=C(/N)N[N+](=O)[O-])c(OC)c1", "Potency": "inactive"},
      {"compound": "Cc1cccc(-c2nc(CN3C(=O)CN=C(c4ccccc4)c4ccccc43)c(C)o2)c1", "Potency": "inconclusive: 56.2 µM [inhibitor, partial curve, poor fit]"},
      {"compound": "COc1ccc(CCn2c(O)c(C=NCCCO)c(=O)[nH]c2=O)cc1OC", "Potency": "inactive"},
      {"compound": "C=CCNC(=O)C(C)OC(=O)c1cn(C)c2ccccc12", "note": "(stereo not given)", "Potency": "inactive"},
      {"compound": "CSc1cccc(NC(=O)NC[C@H]2C[C@@H]3CCN2C[C@@H]3CN(C)c2ccccc2)c1", "Potency": "inconclusive: 100 µM [inhibitor, partial curve]"},
      {"compound": "O=C(Oc1ccccc1)N1CCC2(CCCN(Cc3ccccc3)C2)CC1", "Potency": "inconclusive: 31.6 µM [inhibitor, single point]"},
      {"compound": "Cc1cc(=O)n(-c2ccccc2)n1-c1ccccc1", "Potency": "inactive"},
      {"compound": "C=CCn1c(=O)c(C=Nc2cccc([N+](=O)[O-])c2)c(O)n(CCCC)c1=O", "Potency": "inconclusive: 50.1 µM [inhibitor, partial curve, poor fit]"},
      {"compound": "COc1ccc(CCNCc2ccccc2)cc1", "Potency": "inconclusive: 2.82 µM [inhibitor, full curve]"},
      {"compound": "CCOC(=O)CC1c2ccccc2-n2nncc2CN1CC1CCCCC1", "note": "(stereo not given)", "Potency": "inconclusive: 112 µM [inhibitor, single point]"},
      {"compound": "CN1C(=O)C(=Cc2ccc(N3CCCCCC3)cc2)C(=O)N(C)C1=O", "Potency": "inconclusive: 44.7 µM [inhibitor, partial curve, poor fit]"},
      {"compound": "COc1cc2c(cc1Oc1cccc(N(C)C)c1)NC(=O)C21CCN(C(=O)C2CCC2)CC1", "Potency": "inconclusive: 89.1 µM [inhibitor, single point]"},
      {"compound": "Cc1cccc(-n2c(O)c(/C=N/Nc3nc4c(c(=O)n(C)c(=O)n4C)n3C)c(=O)[nH]c2=S)c1", "Potency": "active: 31.6 µM"},
      {"compound": "COC(=O)C1=C(c2cccc(OCc3ccccc3)c2)C[C@@H]2CC[C@H]1N2C(=O)NCCOc1ccc(OC)cc1", "Potency": "inactive"},
      {"compound": "COc1ccc2c(c1)C1OCCNC1CC2", "note": "(stereo not given)", "Potency": "inconclusive: 39.8 µM [inhibitor, partial curve, poor fit]"},
      {"compound": "C[N+]1=C(/C=C/Nc2ccccc2)C(C)(C)c2ccccc21", "Potency": "inconclusive: 50.1 µM [inhibitor, partial curve, poor fit]"},
      {"compound": "O=C(c1cc([N+](=O)[O-])ccc1N1CCNCC1)N1CCOCC1", "Potency": "inconclusive: 79.4 µM [inhibitor, partial curve, poor fit]"},
      {"compound": "CSc1cccc(NC(=O)NC[C@H]2C[C@@H]3CCN2C[C@@H]3CN(C)Cc2ccccc2)c1", "Potency": "inactive"},
      {"compound": "CCN(CC)C(=O)c1ccc(NC(=O)c2sccc2-c2ccccc2)cc1", "Potency": "inconclusive: 3.16 µM [inhibitor, full curve, poor fit]"},
      {"compound": "CNC(=O)NC(=O)COC(=O)c1cn(C)c2ccccc12", "Potency": "inactive"},
      {"compound": "CCOc1ccc(CN(CCc2ccc3c(c2)OCO3)Cc2cccc(OC)c2)cc1", "Potency": "inconclusive: 1.58 µM [inhibitor, full curve, poor fit]"},
      {"compound": "CN(CCc1ccccn1)C[C@H]1CN2CC[C@H]1C[C@@H]2CNS(=O)(=O)c1ccc(Cl)cc1", "Potency": "inactive"},
      {"compound": "Cc1cc(C=C(C#N)C#N)c(C)n1C1CC1", "Potency": "inconclusive: 50.1 µM [inhibitor, partial curve, poor fit]"},
      {"compound": "COc1ccc(CC(=O)Nc2ccc(C#N)c(Cl)c2)cc1S(=O)(=O)N1CCOCC1", "Potency": "inconclusive: 112 µM [inhibitor, single point]"},
      {"compound": "O=C1NC(=O)N(Cc2ccco2)C(=O)/C1=C/c1cccn1CCOc1ccccc1Cl", "Potency": "inconclusive: 44.7 µM [inhibitor, partial curve, poor fit]"},
      {"compound": "CN(C[C@H]1CN2CC[C@H]1C[C@@H]2CNS(=O)(=O)c1cccs1)c1ccccc1", "Potency": "inactive"},
      {"compound": "COc1cc2c(cc1Oc1ccccc1)NC(=O)C21CCN(c2ncccn2)CC1", "Potency": "inconclusive: 63.1 µM [inhibitor, partial curve, poor fit]"},
      {"compound": "Cc1nn(-c2ccccc2)c(Cl)c1C1C(C#N)=C(N)Oc2c1c(=O)oc1ccccc21", "note": "(stereo not given)", "Potency": "inactive"},
      {"compound": "CCN(CC)C(=O)c1ccc2c(c1)C1C=CCC1C(C(=O)O)N2", "note": "(stereo not given)", "Potency": "inconclusive: 0.891 µM [inhibitor, full curve, poor fit]"},
      {"compound": "c1ccc(-c2nc3ccccc3nc2-c2ccc(CN3CCC(n4nnc5ccccc54)CC3)cc2)cc1", "Potency": "inconclusive: 14.1 µM [inhibitor, partial curve]"},
      {"compound": "CCOC(=O)CNC(=O)N1Cc2cc(-c3cccc(F)c3)ccc2-n2nncc2C1", "Potency": "inactive"},
      {"compound": "Cc1cccc2[nH]cc(C3=CCN(C(C)C(=O)NC4CC4)CC3)c12", "note": "(stereo not given)", "Potency": "inconclusive: 0.316 µM [inhibitor, full curve, poor fit]"},
      {"compound": "CC(O)CNCCNc1ccc([N+](=O)[O-])c2cccnc12", "note": "(stereo not given)", "Potency": "inconclusive: 44.7 µM [inhibitor, single point]"},
      {"compound": "O=C(c1ccc2c(c1)OCO2)N1[C@H]2CC[C@@H]1c1cnc(-c3ccccc3)nc1C2", "Potency": "inactive"},
      {"compound": "OCCCCO", "Potency": "inactive"},
      {"compound": "O=C(NCC1CC1)c1cn(C2CNC2)nn1", "Potency": "inactive"},
      {"compound": "O=C(COc1ccc(Br)cc1)N1CCN(Cc2c[nH]c3ccccc23)CC1", "Potency": "inconclusive: 1.26 µM [inhibitor, full curve, poor fit]"},
      {"compound": "COc1cc2c(cc1OCc1ccccc1)N([S+](=O)([O-])c1ccc3c(c1)CCO3)CC21CCN(C)CC1", "Potency": "inconclusive: 17.8 µM [inhibitor, full curve]"},
      {"compound": "CCn1cc(CN2CCCC(C(=O)c3cccc(OC)c3)C2)c(C)n1", "note": "(stereo not given)", "Potency": "inconclusive: 126 µM [inhibitor, single point]"},
      {"compound": "O=C(c1ccc(F)cc1)N1C[C@@H]2C[C@H](C1)c1ccc(-c3cncnc3)c(=O)n1C2", "Potency": "inactive"},
      {"compound": "O=P(NS(=O)(=O)c1ccccc1)(Oc1ccccc1)Oc1ccccc1", "Potency": "inactive"},
      {"compound": "COc1ccc(C(=O)C2CCCN(Cc3cnc(C)s3)C2)cc1OC", "note": "(stereo not given)", "Potency": "inactive"},
      {"compound": "COc1cc(OC)c2c(C)c(CC(=O)N3CCN(CCc4ccccn4)CC3)c(=O)oc2c1", "Potency": "inactive"},
      {"compound": "CCOc1ccccc1C(=O)N1CCC2(CC1)c1nccn1-c1ccccc1CN2C", "Potency": "inactive"},
      {"compound": "O=P(Oc1ccccc1)(Oc1ccccc1)C(O)c1ccccc1", "note": "(stereo not given)", "Potency": "inactive"},
      {"compound": "CCCCN1CC(C(=O)Nc2ccc(C(=O)Nc3ccc(C#N)c(Cl)c3)cc2)CC1=O", "note": "(stereo not given)", "Potency": "inconclusive: 63.1 µM [inhibitor, partial curve, poor fit]"},
      {"compound": "Cc1cc(O)c2c(C)c(CC(=O)N3CCN(Cc4ccccc4)CC3)c(=O)oc2c1", "Potency": "inconclusive: 100 µM [inhibitor, single point]"},
      {"compound": "CN1CSC(=S)N(C)C1", "Potency": "inactive"},
      {"compound": "CC(=NCCCn1ccnc1)c1c(O)n(-c2ccccc2)c(=O)[nH]c1=O", "Potency": "inconclusive: 2.24 µM [inhibitor, full curve, poor fit]"},
      {"compound": "c1ccc(C(c2ccccc2)c2cccnc2)cc1", "Potency": "inactive"},
      {"compound": "CSc1cccc(NC(=O)NC[C@H]2C[C@@H]3CCN2C[C@@H]3CN2CCOCC2)c1", "Potency": "inactive"},
      {"compound": "Cc1cc(/C=C2\\C(=O)NC(=O)N(c3ccc(Cl)cc3)C2=O)c(C)n1-c1sc2c(c1C#N)CCCC2", "Potency": "active: 11.2 µM"},
      {"compound": "Cc1ccc(NC(=O)Cn2cc(C(=O)c3ccccc3)c3ccccc32)cc1", "Potency": "inactive"},
      {"compound": "CCNC(=O)NC[C@H]1C[C@@H]2CCN1C[C@@H]2c1cc(-c2ccccc2)nn1C", "Potency": "inactive"},
      {"compound": "C=C1C[C@]2(O)[C@@]3(C)CCC(=O)C(C)(C)C3=C(O)C(=O)[C@@]2(C)[C@@H]2C(=O)O[C@@](C)(C(=O)OC)C(=O)[C@@]12C", "Potency": "inconclusive: 8.91 µM [inhibitor, single point]"},
      {"compound": "O=C1NC[C@H]2CN(C3CCOCC3)CCN12", "Potency": "inactive"},
      {"compound": "N#Cc1ccc(NC(=S)N2Cc3ccccc3-n3nncc3C2)cc1", "Potency": "inconclusive: 112 µM [inhibitor, single point]"},
      {"compound": "CC1CN1P(=O)(Oc1ccc2ccccc2c1)N1CC1C", "note": "(stereo not given)", "Potency": "inactive"},
      {"compound": "CCOC(=O)C(c1c(O)c2ccccc2oc1=O)c1c(O)c2ccccc2oc1=O", "Potency": "inconclusive: 35.5 µM [inhibitor, partial curve]"},
      {"compound": "COc1cc(N2C(=O)CC(=O)NC2=O)cc(OC)c1OC", "Potency": "inconclusive: 25.1 µM [inhibitor, single point]"},
      {"compound": "OC(CN1CCOCC1)c1csc2ccccc12", "note": "(stereo not given)", "Potency": "inconclusive: 112 µM [inhibitor, single point]"},
      {"compound": "CC(=O)c1cccc(NC(=O)NC[C@H]2C[C@@H]3CCN2C[C@@H]3c2cc(-c3cccs3)nc(C)n2)c1", "Potency": "inactive"},
      {"compound": "Cc1cccc(C(C)c2cnc[nH]2)c1C", "note": "(stereo not given)", "Potency": "inconclusive: 35.5 µM [inhibitor, single point]"},
      {"compound": "COc1cc2c(cc1Oc1ccccc1)NC(=O)C21CCN(c2nccs2)CC1", "Potency": "inconclusive: 14.1 µM [inhibitor, full curve]"},
      {"compound": "Cc1nc(-c2cccs2)cc([C@H]2CN3CC[C@H]2C[C@@H]3CO)n1", "Potency": "inactive"},
      {"compound": "CC(OC(=O)c1cn(C)c2ccccc12)C(=O)Nc1ccc(C(N)=O)cc1", "note": "(stereo not given)", "Potency": "inconclusive: 44.7 µM [inhibitor, partial curve, poor fit]"},
      {"compound": "COc1cc(OC)c(OC)cc1C=O", "Potency": "inconclusive: 1.53 µM [inhibitor, full curve, poor fit]"},
      {"compound": "COc1ccc(-n2nc(C(=O)NCC(=O)N3CCC4(CC3)OCCO4)c3ccccc3c2=O)c(OC)c1", "Potency": "inconclusive: 141 µM [inhibitor, partial curve, poor fit]"},
      {"compound": "CCC(C)NC(=O)c1c(N)n(CC2CCCO2)c2nc3ccccc3nc12", "note": "(stereo not given)", "Potency": "inconclusive: 79.4 µM [inhibitor, partial curve, poor fit]"},
      {"compound": "COc1ccc(CCN)cc1S(N)(=O)=O", "Potency": "inconclusive: 50.1 µM [inhibitor, partial curve, poor fit]"}
    ]}
  ]
}
